According to PubChem BioAssay AID1508600 (Functional Genomics Laboratory (NCATS/FGL), 2020):
Out of some 53,000 sequences screened, about 3,700 (7%) were called active.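 The calls were made as follows: active = gene knockdowns whose robust z-score for IL-1 alpha signal is at least 2 or at most -2, so actives lie on both sides; inactive = the rest.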 This is one part of the list.

Assay: Components of the Cytosolic LPS Sensing Pathway: Gene Identification via Genome-wide siRNA Screen;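 also: robust z of the log signal after scaling to non-targeting control siRNA wells of the plate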
Settings: RAW264.7 macrophages, IL-1a HTRF, actives lie on both sides, screened at 100 nM (by protocol), cells primed 5 h with Pam3CSK4 first
How it was run: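 Using IL-1a HTRF as read-out, the screen measured release from RAW264.7 cells after 48h siRNA knockdown (100 nM), 5 h Pam3CSK4 priming and 24 h cytosolic LipidA. Values were expressed relative to negative-control wells as robust z-scores.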

Sequence	z-score
GGACCAAGACCGAUGUGUATT against Ackr4	inactive: 0.398
GGUGUCUUAAAGCUGAAAUTT against E2f5	inactive: -0.111
CCUCAGCUAAUGAAACUUCTT against Utp14b	inactive: -0.902
GGAAAGUGAUGUCACAAAATT against G3bp1	inactive: 1.31
GGAAAGAUGUGGAAGUAAATT against Erc1	inactive: -0.977
GCAUUCAAGCAACCACGAATT against Ptdss1	inactive: -0.926
GGAAACCCAGAGCAGCAGATT against Tdg	inactive: -1.01
CCUCAUCCUUAGUUGUUUUTT against Ift88	inactive: -0.15
CCCGAAGCCUUAGAUAUAATT against Tns4	inactive: -0.15
GGAUAUCACUGAAGAGAGCTT against Ndufaf3	inactive: -0.127
GGCGGUGGAGGUGAUAUAUTT against Dennd6a	active: -2.01
GGAAAAAGAAAAACCAGCATT against Sytl4	inactive: -0.959
CUACAGUCGCAUCAACUAUTT against Tepp	inactive: 1.34
GGGAUGAACUCAACUGGAATT against Lrpap1	inactive: -0.332
GGACCAACUACACACUACGTT against Grik5	inactive: 0.334
GGGAUUCUACUGUGUGUGATT against Gpr82	inactive: -0.532
CGAUUUCCCAAGUUAUUACTT against Nxf1	active: -2.26
GGUAGCUUACAAACCAUCATT against Tab1	inactive: -1.6
GAGCAAGAUCCAGCCCUAUTT against Usp17lc	inactive: 1.43
GGUAUUGGGCCAUUGGUUGTT against Mapkapk3	inactive: 0.705
GGAACAAAUGCCACUAACCTT against Pde5a	inactive: -0.566
GGAUGUGCUCGGUUGGAAGTT against Mtag2	inactive: -1.11

Sequence	z-score
GGAUAAGAGUGAUGAAGCCTT against Dgcr2	inactive: 0.504
GGCAAGGCUAACUGACCUGTT against Cxcl2	inactive: 0.37
GGUUUUACUGUAGACCUUUTT against Hnrnpa1	inactive: 0.542
GAUUUUCUGUGUCCAUCAATT against Olfr726	inactive: -0.548
GGACACAGAUUUCACUAUATT against Arfrp1	inactive: 0.67
GCAACAAAUGGACUUUCCATT against Stard13	inactive: 0.19
GGGAGAUGAUAAUUAAGUUTT against Aadacl2fm1	inactive: 0.58
GGAAGUUUCAGUCAAGAAGTT against Rrp1b	inactive: 0.759
GGAUGCAGAUGUACAACUCTT against Slc25a28	active: 2.17
GCCGUGUUUACAGAAUGUUTT against Nkx2-2	inactive: -0.0892
CCCAAUUUUUAGUUGCUAATT against Rab2b	inactive: 0.0495
CGAACUUUGUCAUGUCCAUTT against 9930111J21Rik2	inactive: 0.162
GGAUUUCAAAACCGACUUGTT against H3f3b	inactive: 0.0842
CCCUCUCCUCAGAUAUACUTT against Grasp	inactive: -1.35
GCAGAUCACCUUUUGUUUATT against Gdap2	inactive: 0.767
CCUCGUAAGACUGUAAAAGTT against Neurog2	inactive: -0.0769
GGUGAAGUAUGGCAACAUGTT against Unc93b1	inactive: 1.33
GCCUCUAUGUUACCACCUCTT against Fam110c	inactive: -1.61
CCAUAAAGAACAUCACUAATT against Igf2bp2	inactive: 0.34
GGGUUAGGUUGGGAUGGAUTT against Ccnd3	inactive: -0.466
GGGAUCUAAGGAACAGAGATT against Fgf8	inactive: 1.1
GGGAUCAAAGGAAAUUACATT against Vnn1	inactive: -1.52

Sequence	z-score
GGAAUGAGAAGAGAGGAUCTT against Rpp25	inactive: -0.239
GGACAGCACUAACACAUCCTT against Slamf9	inactive: -0.413
GGUCUCCACCUCCAUAUCCTT against Slc15a3	inactive: -1.74
CCGAGGAGAACACUUGUAGTT against Opn4	active: -2.54
GCAAUCCAGAGGUACGCUATT against Hgf	inactive: 0.031
GCUCUUCUCAAGUAUGACGTT against Chrna6	inactive: 0.717
GAGAAGAAGACAAAGAUCCTT against Defb7	inactive: -0.12
CCAAGCUAGAUAAAGAAAGTT against Yap1	inactive: -1.68
CCUCUACUCCUUAUUGUCUTT against Ctf2	inactive: -0.753
GGACAGGAGUUUAAAAUUATT against Apip	inactive: 0.679
CCUCAAAGGCCCUACCAAUTT against Tle6	inactive: -1.66
CCAAAGUCAUAAUUCCAACTT against Timm23	inactive: 0.202
GGCUGCUUUAAAGAGAUUCTT against Olfr1045	inactive: 0.528
GCACAACAUACCCUGUGGUTT against Syn1	active: -2.72
GGAAAUGCUCCUCUAGGAUTT against Ppcs	inactive: 0.039
GGCAAAGCAGGGAUCUAGATT against Noxo1	inactive: -0.431
GAAAAAUGUGGAAGAGAUUTT against Olfr1219	inactive: -0.909
GGACAAGGAUAGUAGUAAGTT against Parp1	inactive: -0.122
GGAGAUUUGGAAAAGGCAATT against Clec4f	inactive: 0.179
GGCCAUUUGGAAACUAUUATT against Anapc11	inactive: -0.109
CCUUGUAUAUGAGCGAAAATT against Cd177	inactive: -0.215
CCAAUAGUGCUGAUAAUGUTT against Wrap53	inactive: 0.337

Two entries from above, as labelled records:
GAAAAAUGUGGAAGAGAUUTT against Olfr1219
  z-score: inactive: -0.909
CCAAUAGUGCUGAUAAUGUTT against Wrap53
  z-score: inactive: 0.337

The listing continues:

Sequence	z-score
GGAAACAUCCACAAAGAGUTT against Kri1	inactive: 0.532
GGGACAAAGAAAAUCUACUTT against Ehf	inactive: 0.637
CCUACGUGUUUAAGAUGAATT against Alk	inactive: 0.499
GGUUCCGUUUAAUGAAGUGTT against Fxr1	inactive: -0.542
GGGAAUAUGUCUUGUGAUATT against Ddo	inactive: 0.141
GACCUUCCUGUCUUCCCUCTT against Cmtm5	inactive: 1.68
GCCUGUGGAGCCAAUCUACTT against Ephx2	inactive: -0.211
CCUAUUAAAUCUCUGUAAGTT against Cep164	inactive: -0.162
GGAGAGAUGAGAUUUUUCATT against Rad54b	inactive: 1.07
GGAUUCACCUGUUAUCUUUTT against Tapbpl	inactive: 0.303
CCACUCAGGAAAUGUUAAGTT against Mrpl53	inactive: 0.645
GGAAAUGUUGCAUUUUUGATT against Ltf	inactive: 0.312
CCUUUCAGGCCAAUUGGCATT against Ube2l6	inactive: 0.0844
GGGAGAACGGGUUCUCUUUTT against Sox12	inactive: 1.36
CGGGUUUGUAAUAUUGUAUTT against Mblac2	inactive: -0.365
CCUAUGAAGGACACAGACUTT against Trim9	inactive: 1.09
CCACAAAUAUAUGGGUUACTT against Tbc1d5	inactive: 1.21
GGUACCAUCACGUUGUGUATT against M6pr	inactive: -0.76
GCGUGCAACAUGUUCUGUATT against Wfdc13	inactive: 0.0377
CCCGGUCAUAUAUGCCAUCTT against Gpr135	inactive: -0.416
GGACAAGAUGAUCUGCCUATT against Lrrc8a	inactive: 0.722
GGAUGGAUCAAUUCAACCATT against Tmem50a	inactive: -1.73

Sequence	z-score
GGGUUUGGGAACAUCGAUGTT against Angptl2	inactive: 0.66
GGUAUAAAGCCUCAGUUUUTT against Gatad1	inactive: 0.137
CCAUUGUACAGAAAAACACTT against Abhd18	inactive: 0.41
GCGUGGAUCAACUCAUGGATT against Naxe	inactive: -0.718
GGAUAAUUAUAGGAAGAGCTT against Ncapd3	inactive: -0.507
GCCGUUGAGUAUAAAACUCTT against Stfa1	inactive: -1.16
GGUCCUUAUCGCUUGGAUGTT against Vwa8	inactive: -0.202
GGGAUUUGCCAAAGAAUAGTT against AI597479	inactive: 0.875
GGAAUCGGUGGCCAUCAAUTT against Olfr771	inactive: 0.458
GGAAUGGUUAUGAAUUUGATT against Pts	inactive: 0.0181
GCAAGUCAUGCGAAUACAATT against Chrdl1	inactive: 0.18
GGUGAGAAGAUGUCUCUUATT against Olfr103	inactive: -0.662
GGAAGAAACUGAGAAACUGTT against Fam205c	inactive: 0.48
CCAUGGACUUUCUCGAAGATT against Ceacam11	inactive: 0.612
GGGCGAGUUCAACUGAGACTT against Hapln3	inactive: -0.876
GCCAUGUGUCUCACAAGUCTT against Sprr1b	inactive: -0.0338
GGAAACAAGGAUAUUCUUUTT against Fanca	inactive: 0.859
CCAUUACACAAAGUUUUGCTT against Stard6	inactive: 0.88
GCCAUUGGUUGGGAUAAACTT against Fancl	inactive: 0.513

Two entries from above, reformatted.
GGUAUAAAGCCUCAGUUUUTT against Gatad1
  z-score: inactive: 0.137
CCAUUGUACAGAAAAACACTT against Abhd18
  z-score: inactive: 0.41
